In the supplement of paper PMC10849652:
The list shows a part of the results.

Sequences of proteins named here, by UniProt entry; tags and fusion partners are left off. A change or cut given only in a name is not applied to a line headed by its entry.
UniProt B2RUZ4: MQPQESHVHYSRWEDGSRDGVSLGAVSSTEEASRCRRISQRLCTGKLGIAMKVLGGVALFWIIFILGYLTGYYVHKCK
UniProt P53814: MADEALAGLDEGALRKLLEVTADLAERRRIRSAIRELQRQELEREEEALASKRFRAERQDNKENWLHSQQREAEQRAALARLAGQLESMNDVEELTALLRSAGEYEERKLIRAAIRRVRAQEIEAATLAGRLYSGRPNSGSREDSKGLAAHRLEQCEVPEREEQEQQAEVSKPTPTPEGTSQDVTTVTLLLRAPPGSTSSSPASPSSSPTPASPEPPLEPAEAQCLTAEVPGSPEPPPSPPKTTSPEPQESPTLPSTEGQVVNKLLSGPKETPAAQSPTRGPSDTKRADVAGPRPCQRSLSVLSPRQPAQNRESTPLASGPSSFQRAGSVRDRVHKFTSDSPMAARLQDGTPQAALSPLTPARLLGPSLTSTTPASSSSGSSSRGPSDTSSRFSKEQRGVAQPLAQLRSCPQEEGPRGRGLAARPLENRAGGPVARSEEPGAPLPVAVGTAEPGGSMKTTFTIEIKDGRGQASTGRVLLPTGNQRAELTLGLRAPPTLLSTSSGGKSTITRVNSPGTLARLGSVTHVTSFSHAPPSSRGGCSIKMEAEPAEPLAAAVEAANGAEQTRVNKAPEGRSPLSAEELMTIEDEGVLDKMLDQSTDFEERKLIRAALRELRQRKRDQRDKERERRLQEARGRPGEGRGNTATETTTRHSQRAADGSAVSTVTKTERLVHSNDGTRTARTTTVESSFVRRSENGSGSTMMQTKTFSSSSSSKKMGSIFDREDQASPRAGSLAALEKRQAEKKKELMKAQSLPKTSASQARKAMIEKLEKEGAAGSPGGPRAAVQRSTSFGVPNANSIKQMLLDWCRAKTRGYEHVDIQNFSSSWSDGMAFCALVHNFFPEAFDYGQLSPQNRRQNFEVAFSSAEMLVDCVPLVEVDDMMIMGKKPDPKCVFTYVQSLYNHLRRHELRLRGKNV
UniProt Q3SY56: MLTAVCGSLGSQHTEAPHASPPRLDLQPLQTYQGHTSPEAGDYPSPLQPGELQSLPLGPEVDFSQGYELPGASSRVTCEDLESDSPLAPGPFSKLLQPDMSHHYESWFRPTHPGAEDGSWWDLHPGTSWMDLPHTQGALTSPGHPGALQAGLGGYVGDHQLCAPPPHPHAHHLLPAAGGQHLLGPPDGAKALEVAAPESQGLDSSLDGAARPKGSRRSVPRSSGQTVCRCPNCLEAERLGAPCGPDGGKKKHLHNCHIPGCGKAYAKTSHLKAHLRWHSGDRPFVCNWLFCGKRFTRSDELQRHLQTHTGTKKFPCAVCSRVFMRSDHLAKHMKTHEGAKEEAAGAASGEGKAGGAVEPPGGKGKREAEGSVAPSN
UniProt Q92581: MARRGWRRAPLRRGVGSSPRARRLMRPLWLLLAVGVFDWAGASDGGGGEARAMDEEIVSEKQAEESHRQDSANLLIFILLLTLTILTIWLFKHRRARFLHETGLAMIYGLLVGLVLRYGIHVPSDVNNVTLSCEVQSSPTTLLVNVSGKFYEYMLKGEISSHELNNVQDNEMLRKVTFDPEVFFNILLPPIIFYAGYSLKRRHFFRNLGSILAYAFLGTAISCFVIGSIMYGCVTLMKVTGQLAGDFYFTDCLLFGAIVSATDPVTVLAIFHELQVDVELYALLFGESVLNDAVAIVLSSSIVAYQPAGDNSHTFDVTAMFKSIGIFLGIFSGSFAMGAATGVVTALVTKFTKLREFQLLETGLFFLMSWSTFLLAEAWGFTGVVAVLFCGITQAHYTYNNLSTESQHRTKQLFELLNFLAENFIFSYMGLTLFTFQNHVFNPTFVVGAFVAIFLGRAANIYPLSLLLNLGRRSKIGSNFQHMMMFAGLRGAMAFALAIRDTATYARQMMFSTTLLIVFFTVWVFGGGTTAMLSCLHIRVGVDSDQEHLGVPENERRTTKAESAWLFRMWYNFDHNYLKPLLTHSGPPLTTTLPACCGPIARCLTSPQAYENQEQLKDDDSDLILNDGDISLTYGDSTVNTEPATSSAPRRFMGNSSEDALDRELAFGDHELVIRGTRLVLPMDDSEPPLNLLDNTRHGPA
UniProt Q8WVI0: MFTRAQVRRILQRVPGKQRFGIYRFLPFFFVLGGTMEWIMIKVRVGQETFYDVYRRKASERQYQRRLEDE
UniProt Q6J4K2: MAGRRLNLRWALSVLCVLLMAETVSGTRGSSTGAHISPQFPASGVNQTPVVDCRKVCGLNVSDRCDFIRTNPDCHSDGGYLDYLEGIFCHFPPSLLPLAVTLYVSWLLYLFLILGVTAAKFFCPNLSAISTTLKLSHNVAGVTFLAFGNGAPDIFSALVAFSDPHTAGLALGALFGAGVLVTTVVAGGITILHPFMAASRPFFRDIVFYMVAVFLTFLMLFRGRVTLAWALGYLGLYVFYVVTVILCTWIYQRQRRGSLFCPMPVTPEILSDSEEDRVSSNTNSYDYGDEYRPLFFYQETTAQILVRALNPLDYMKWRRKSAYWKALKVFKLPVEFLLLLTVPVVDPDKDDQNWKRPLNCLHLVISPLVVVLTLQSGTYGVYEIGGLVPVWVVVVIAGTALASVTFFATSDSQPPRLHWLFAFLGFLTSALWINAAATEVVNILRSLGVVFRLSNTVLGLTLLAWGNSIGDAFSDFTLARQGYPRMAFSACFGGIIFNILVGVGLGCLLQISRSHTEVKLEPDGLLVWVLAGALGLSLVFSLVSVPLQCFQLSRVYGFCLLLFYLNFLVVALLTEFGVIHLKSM
UniProt Q86T20: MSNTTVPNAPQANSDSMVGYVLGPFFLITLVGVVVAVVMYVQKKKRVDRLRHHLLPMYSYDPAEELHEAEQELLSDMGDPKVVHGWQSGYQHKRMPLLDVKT
UniProt Q9NXE4: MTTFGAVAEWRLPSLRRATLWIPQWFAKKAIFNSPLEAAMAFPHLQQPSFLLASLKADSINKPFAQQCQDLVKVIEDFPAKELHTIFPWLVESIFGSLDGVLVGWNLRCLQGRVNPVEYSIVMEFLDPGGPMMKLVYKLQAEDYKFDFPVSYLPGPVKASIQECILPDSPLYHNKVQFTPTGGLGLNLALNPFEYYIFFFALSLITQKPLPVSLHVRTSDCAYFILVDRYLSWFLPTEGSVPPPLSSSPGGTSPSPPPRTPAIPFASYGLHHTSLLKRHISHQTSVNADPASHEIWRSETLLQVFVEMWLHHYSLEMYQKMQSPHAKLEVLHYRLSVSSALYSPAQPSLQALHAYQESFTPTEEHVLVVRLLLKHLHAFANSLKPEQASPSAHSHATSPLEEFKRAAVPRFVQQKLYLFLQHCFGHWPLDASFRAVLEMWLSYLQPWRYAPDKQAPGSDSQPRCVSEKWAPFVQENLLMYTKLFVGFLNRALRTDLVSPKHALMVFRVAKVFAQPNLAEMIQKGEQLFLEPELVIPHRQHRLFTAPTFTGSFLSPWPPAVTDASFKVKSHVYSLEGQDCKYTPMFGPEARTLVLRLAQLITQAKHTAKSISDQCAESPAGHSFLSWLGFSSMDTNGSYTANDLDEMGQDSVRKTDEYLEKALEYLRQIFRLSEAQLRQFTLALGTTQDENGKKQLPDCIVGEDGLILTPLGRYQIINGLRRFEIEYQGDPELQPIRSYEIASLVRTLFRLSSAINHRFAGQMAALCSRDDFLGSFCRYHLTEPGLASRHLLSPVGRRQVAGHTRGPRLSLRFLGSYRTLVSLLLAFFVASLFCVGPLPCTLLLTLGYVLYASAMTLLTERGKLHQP
UniProt P02814: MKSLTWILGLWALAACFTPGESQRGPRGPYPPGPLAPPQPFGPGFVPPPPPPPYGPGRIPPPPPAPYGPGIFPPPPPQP
UniProt Q9BT81: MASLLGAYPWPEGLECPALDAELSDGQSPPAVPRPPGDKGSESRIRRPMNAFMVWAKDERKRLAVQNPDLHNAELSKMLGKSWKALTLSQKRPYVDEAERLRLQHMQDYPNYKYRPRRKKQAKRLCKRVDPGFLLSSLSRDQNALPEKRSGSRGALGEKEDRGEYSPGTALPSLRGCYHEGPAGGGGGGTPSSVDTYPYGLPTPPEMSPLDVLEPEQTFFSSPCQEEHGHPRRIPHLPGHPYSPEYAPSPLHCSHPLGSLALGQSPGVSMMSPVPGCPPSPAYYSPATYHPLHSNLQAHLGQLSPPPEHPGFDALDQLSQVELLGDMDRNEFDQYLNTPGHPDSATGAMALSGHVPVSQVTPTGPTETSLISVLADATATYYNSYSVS
UniProt P0DMW3: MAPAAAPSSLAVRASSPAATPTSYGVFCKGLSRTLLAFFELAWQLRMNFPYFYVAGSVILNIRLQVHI
UniProt O75971: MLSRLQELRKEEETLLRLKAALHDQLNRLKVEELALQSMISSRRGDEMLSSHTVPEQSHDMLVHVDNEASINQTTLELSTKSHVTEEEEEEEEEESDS
UniProt O60504: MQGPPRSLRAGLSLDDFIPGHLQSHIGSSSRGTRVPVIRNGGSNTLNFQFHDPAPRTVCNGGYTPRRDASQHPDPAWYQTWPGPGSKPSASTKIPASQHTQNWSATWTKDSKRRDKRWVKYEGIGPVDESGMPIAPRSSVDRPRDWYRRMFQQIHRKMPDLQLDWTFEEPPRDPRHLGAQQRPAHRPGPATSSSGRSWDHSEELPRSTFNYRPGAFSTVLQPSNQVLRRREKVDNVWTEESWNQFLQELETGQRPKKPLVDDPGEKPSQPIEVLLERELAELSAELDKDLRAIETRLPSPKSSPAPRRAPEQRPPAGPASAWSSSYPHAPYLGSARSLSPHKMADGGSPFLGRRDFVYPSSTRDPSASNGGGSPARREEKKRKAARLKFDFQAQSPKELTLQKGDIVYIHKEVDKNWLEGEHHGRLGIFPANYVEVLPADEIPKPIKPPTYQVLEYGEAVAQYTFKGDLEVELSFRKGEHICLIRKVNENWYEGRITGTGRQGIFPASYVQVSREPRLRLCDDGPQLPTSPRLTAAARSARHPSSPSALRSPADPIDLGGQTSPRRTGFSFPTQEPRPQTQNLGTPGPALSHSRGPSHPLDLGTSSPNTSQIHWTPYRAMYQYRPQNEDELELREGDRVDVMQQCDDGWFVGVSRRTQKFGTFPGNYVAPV
UniProt P51531, whole entry, looked up: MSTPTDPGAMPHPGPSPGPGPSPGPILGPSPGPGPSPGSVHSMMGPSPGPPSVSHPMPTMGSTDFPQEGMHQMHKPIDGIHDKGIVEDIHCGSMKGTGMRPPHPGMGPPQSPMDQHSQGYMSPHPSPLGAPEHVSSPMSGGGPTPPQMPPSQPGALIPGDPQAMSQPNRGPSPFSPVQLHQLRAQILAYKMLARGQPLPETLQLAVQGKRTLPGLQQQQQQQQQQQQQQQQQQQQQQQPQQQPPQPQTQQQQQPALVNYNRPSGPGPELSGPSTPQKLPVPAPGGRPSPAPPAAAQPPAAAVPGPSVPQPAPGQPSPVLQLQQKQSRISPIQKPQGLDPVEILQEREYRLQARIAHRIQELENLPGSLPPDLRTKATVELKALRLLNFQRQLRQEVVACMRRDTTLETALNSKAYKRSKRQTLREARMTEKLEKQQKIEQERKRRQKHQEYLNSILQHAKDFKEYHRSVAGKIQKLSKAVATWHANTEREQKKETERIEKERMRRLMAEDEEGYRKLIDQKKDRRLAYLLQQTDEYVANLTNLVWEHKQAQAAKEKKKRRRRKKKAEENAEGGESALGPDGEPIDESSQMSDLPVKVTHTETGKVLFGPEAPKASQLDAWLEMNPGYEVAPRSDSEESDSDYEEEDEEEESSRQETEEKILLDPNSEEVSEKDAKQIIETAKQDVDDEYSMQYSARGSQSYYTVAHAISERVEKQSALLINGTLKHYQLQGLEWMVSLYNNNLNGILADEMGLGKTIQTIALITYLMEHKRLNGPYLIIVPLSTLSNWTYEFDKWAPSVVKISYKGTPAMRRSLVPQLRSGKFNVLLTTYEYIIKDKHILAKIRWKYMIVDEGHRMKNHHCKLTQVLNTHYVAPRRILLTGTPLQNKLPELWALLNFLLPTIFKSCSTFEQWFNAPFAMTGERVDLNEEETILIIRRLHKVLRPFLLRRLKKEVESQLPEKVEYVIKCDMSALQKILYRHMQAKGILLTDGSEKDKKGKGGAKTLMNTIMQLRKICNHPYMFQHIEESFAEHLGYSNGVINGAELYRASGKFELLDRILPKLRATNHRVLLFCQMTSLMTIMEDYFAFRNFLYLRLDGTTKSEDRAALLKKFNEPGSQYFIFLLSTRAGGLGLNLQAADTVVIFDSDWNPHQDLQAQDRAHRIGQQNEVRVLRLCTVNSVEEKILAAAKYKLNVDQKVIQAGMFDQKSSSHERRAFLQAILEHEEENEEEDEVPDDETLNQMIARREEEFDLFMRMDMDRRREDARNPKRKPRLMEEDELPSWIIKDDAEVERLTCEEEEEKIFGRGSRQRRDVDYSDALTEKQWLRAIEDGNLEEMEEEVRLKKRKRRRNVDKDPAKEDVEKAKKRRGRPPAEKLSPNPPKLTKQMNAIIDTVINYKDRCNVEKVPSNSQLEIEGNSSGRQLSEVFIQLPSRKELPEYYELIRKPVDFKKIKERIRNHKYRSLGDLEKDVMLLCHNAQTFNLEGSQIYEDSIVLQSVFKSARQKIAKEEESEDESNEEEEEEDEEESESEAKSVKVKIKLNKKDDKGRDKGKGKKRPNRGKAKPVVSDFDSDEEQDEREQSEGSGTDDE

What was measured:
Assay in all cases: log2 fold change, soluble protein after heating vs DMSO (PISA); higher = thermal stabilisation; K562 cells, 10 uM, 30 min; active = over 0.2 and 3.5 SD of the protein, either way, in both replicates (recomputed)
[1] = compound: CC1=C(C=C(C=C1)NC(=O)C2=CC(=CC=C2)C(C)(C)C#N)NC3=CC4=C(C=C3)N=CN(C4=O)C
Procedure, shortened: (§1)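 K562 cells at 2×10^6 cells/mL were exposed to 10 μM compound for 30 min, then aliquots were heated for 3 min across 48°C-58°C, pooled, and extracted in PBS containing 0.5% NP-40 at 4°C. The supernatant after 21,000xg for 90 min was taken as soluble protein and measured by TMTpro 16plex LC-MS/MS with channel sums equalised. Thermal stability is reported relative to control samples, with values from duplicates. Fold changes are given on a log2 scale.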

[2] = compound: CC1=CC=C(C=C1)SC2=C3C=C(SC3=CN=C2)C(=O)N
Procedure, shortened: as §1

[3] = compound: CC1=NC(=CC=C1)C2=C(N=C(N2)C(C)(C)C)C3=CC4=NC=CN=C4C=C3
Procedure, shortened: as §1

[4] = compound: CCCS(=O)(=O)Nc1ccc(F)c(C(=O)c2c[nH]c3ncc(Cl)cc23)c1F
Procedure, shortened: as §1

[5] = compound: CCCc1cc(C)[nH]c(=O)c1CNC(=O)c1cc(-c2ccnc(N3CCN(C)CC3)c2)cc2c1cnn2C(C)C
Procedure, shortened: as §1

[6] = compound: CCN(CC)Cc1ccc2cc(COC(=O)Nc3ccc(C(=O)NO)cc3)ccc2c1 [givinostat]
Procedure, shortened: as §1

[7] = compound: CCN(CCCOc1ccc2c(Nc3cc(CC(=O)Nc4cccc(F)c4)[nH]n3)ncnc2c1)CCOP(=O)(O)O [barasertib]
Procedure, shortened: as §1

[8] = compound: CCCCN(Cc1ccc(C(=O)NO)cc1)C(=O)Nc1ccccc1 [Nexturastat A]
Procedure, shortened: as §1

[9] = compound: CC1=C(C=C(C=C1)NC(=O)C2=CC(=CC=C2)N(C)C)NC(=O)C3=CC=C(C=C3)O
Procedure, shortened: as §1

[10] = compound: CCCS(=O)(=O)Nc1ccc(F)c(C(=O)c2c[nH]c3ncc(-c4ccc(Cl)cc4)cc23)c1F [vemurafenib]
Procedure, shortened: as §1

Measured: log2 fold change

SMIM1 (UniProt B2RUZ4)
inactive: [1] -0.069 | [2] 0.049 | [3] -0.207 | [4] 0.057 | [5] -0.147 | [6] -0.073 | [7] -0.075

SNX19 (UniProt Q92543)
inactive: [1] 0.084 | [2] -0.019 | [3] -0.037 | [8] -0.016 | [4] 0.107 | [6] 0.003

SOS1 (UniProt Q07889)
inactive: [1] -0.056 | [9] -0.049 | [3] -0.235 | [8] -0.007 | [5] -0.023 | [6] 0.108 | [7] -0.094

SMTN isoform 6 (UniProt P53814)
inactive: [1] 0.185 | [2] -0.01 | [8] -0.389 | [10] -0.075 | [4] -0.003 | [6] -0.13

SLC9A1 (UniProt P19634)
inactive: [1] 0.039 | [2] 0.006 | [3] 0.007 | [8] 0.056 | [10] 0.103 | [4] -0.1 | [5] 0.041 | [6] 0.081 | [7] 0.004

SP2 (UniProt Q02086)
inactive: [1] -0.032 | [3] -0.122

SP6 (UniProt Q3SY56)
inactive: [1] -0.244 | [9] 0.104 | [2] -0.013 | [8] -0.002 | [10] 0.055 | [4] -0.088 | [5] -0.026 | [6] 0.009 | [7] 0.026

SNX18 (UniProt Q96RF0)
inactive: [1] -0.068 | [3] -0.071 | [8] 0.141 | [6] 0.053

SNRPC (UniProt Q5TAL2)
inactive: [1] -0.081 | [9] -0.03 | [2] -0.065 | [8] 0.361 | [10] 0.056 | [4] 0.002 | [5] 0.118 | [6] 0.153 | [7] 0.104

SNX2 isoform 2 (UniProt O60749)
inactive: [1] 0 | [2] -0.003 | [3] -0.039 | [8] 0.484 | [10] -0.026 | [4] -0.144 | [7] -0.054

SMU1 isoform 2 (UniProt Q2TAY7)
inactive: [3] 0.119 | [7] -0.08

SLX4IP (UniProt Q5VYV7)
inactive: [2] -0.18 | [4] 0.056

SMARCAL1 (UniProt Q9NZC9)
inactive: [9] -0.104 | [10] -0.092 | [5] 0.02 | [6] 0.125

SMG6 (UniProt Q86US8)
inactive: [1] 0.207 | [8] 0.129 | [7] -0.174

SLC9B2 (UniProt Q86UD5)
inactive: [8] 0.006 | [10] 0.047

SMUG1 (UniProt Q53HV7)
inactive: [1] -0.025 | [5] -0.044

SLC9A6 isoform 3 (UniProt Q92581)
inactive: [2] -0.152 | [4] -0.152 | [6] -0.021 | [7] 0.109

SMIM4 (UniProt Q8WVI0)
inactive: [2] -0.09 | [3] 0.088 | [8] -0.041 | [10] 0.046 | [4] 0.122 | [5] -0.051 | [6] -0.019 | [7] -0.064

SMARCD1 (UniProt Q96GM5)
inactive: [5] -0.065 | [6] 0.163

SMARCB1 (UniProt Q12824)
inactive: [1] 0.188 | [3] 0.101 | [10] 0.065

SNAP47 (UniProt Q5SQN1)
inactive: [8] 0.047 | [10] -0.112 | [6] 0.177

SLC8B1 (UniProt Q6J4K2)
inactive: [9] 0.038 | [2] -0.28 | [3] -0.022 | [10] -0.075 | [4] -0.021 | [6] 0.069 | [7] -0.167

SNX4 (UniProt O95219)
inactive: [9] -0.062

SMIM29 (UniProt Q86T20)
inactive: [1] -0.098 | [6] 0.12

Two records picked at random from those above:
SNX2 isoform 2 (UniProt O60749)
inactive: [1] 0 | [2] -0.003 | [3] -0.039 | [8] 0.484 | [10] -0.026 | [4] -0.144 | [7] -0.054

SNX19 (UniProt Q92543)
inactive: [1] 0.084 | [2] -0.019 | [3] -0.037 | [8] -0.016 | [4] 0.107 | [6] 0.003

Next part

SMPD4 isoform 2 (UniProt Q9NXE4)
inactive: [2] 0.162 | [3] -0.023 | [10] -0.301 | [4] 0.099 | [5] -0.035 | [7] 0.034

SMR3B (UniProt P02814)
inactive: [7] 0.372

SNX27 (UniProt Q96L92)
inactive: [9] 0 | [3] 0.034 | [8] 0.136 | [10] 0.144 | [6] 0.168

SOX7 isoform 2 (UniProt Q9BT81)
inactive: [9] 0.058 | [2] -0.08 | [3] -0.272 | [8] 0.159 | [10] -0.153 | [4] -0.043 | [5] 0.083 | [6] 0.196 | [7] -0.088

SMAD3 (UniProt P84022)
inactive: [9] 0.05 | [2] -0.053 | [10] 0.037 | [4] -0.14

SLPI (UniProt P03973)
inactive: [9] 1.74 | [3] 1.02

SNRPD2 (UniProt K7EJB5)
inactive: [9] -0.023 | [2] -0.102 | [3] 0.004 | [10] -0.163 | [4] -0.159 | [5] -0.138 | [7] -0.016

SMIM10L1 (UniProt P0DMW3)
inactive: [6] -0.102

SMIM19 (UniProt Q96E16)
inactive: [9] -0.112 | [2] 0.209 | [10] -0.092 | [4] -0.023

SNAPC5 (UniProt O75971)
inactive: [2] -0.035 | [3] 0.04 | [8] 0.066 | [10] 0.055 | [4] -0.042 | [6] 0.038 | [7] 0.079

SMIM11A (UniProt P58511)
inactive: [3] -0.008 | [7] -0.227

SORBS3 (UniProt O60504)
inactive: [8] -0.158 | [6] -0.038 | [7] 0.043

SMPDL3A (UniProt Q92484)
inactive: [8] 0.049

SMARCA2 (UniProt P51531)
inactive: [9] 0.053 | [5] -0.11 | [6] 0.013 | [7] -0.111

SMARCD2 (UniProt Q92925)
inactive: [2] -0.071 | [3] -0.048 | [4] 0.215 | [5] 0.222 | [6] 0.02

SNRPN isoform 2 (UniProt P63162)
inactive: [9] -0.024 | [2] -0.132 | [3] 0.146 | [4] -0.26

SP4 (UniProt Q02446)
inactive: [9] 0.18 | [3] -0.026

SNX30 (UniProt Q5VWJ9)
inactive: [1] -0.118 | [8] 0.35

SOX6 (UniProt P35712)
inactive: [9] 0.631 | [2] 0.043 | [10] -0.123 | [4] -0.174 | [5] -0.069
